# Test results: publication PMC5520704
# By UniProt entry, the sequences of proteins in these tests, tags left out. Where a name states a change or a piece, a line headed by the entry shows the natural chain unless it says otherwise.
# UniProt P06396: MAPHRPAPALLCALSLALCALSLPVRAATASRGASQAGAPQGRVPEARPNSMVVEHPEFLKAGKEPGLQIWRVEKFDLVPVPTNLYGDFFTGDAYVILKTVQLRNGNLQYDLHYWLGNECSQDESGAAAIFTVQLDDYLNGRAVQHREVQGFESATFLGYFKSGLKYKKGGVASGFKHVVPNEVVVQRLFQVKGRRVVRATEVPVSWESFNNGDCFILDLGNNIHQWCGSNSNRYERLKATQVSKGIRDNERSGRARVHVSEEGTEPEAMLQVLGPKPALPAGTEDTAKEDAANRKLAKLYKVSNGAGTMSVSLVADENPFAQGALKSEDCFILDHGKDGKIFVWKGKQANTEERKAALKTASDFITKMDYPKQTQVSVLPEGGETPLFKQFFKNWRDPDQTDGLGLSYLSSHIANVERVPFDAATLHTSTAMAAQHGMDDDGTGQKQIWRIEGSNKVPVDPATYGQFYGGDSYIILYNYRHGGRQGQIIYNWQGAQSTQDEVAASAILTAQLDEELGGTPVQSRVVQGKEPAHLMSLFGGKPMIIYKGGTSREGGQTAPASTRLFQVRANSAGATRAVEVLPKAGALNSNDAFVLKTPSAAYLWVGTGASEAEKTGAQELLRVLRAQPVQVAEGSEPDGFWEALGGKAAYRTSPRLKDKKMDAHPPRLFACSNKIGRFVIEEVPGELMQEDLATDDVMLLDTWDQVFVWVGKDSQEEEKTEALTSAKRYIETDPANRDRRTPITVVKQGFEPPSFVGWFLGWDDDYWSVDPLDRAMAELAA
# Results are given in words; binding and its absence hold for the method and conditions named. Binding seen in cells or lysates may run through a third protein. Binding calls can cover weak binding; strength is not graded here. Sequences can lack the tags named with a protein.
# Molecular target: T1, BASP1 that contains a C-terminal HA tag (UniProt P80723)
# T1 sequence: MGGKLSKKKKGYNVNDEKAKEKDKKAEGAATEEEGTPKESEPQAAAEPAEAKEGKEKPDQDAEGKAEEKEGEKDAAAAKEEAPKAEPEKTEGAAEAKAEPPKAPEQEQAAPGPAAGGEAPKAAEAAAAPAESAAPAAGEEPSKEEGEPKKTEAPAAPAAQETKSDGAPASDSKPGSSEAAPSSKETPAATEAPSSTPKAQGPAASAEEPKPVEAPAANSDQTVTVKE
# Assay: co-IP; anti-HA immunoprecipitation from nuclear extracts of V-K562 and B-K562 cells; immunoblotting for the identified factors
substance,measurement,value
gelsolin (from UniProt P06396),binding,binds
